Source: PubChem BioAssay AID1259354 (Paczesny and Yang Labs, IUPUI and University of Michigan, 2018)
Where “and” joins values, the source holds several entries; their conditions need not be identical. Equal entries are not always repeated. Out of some 78,000 compounds screened, about 1,800 (2.3%) were called active. This list was built around the results that the source calls inconclusive (neither active nor inactive); the mix of calls is not that of the screen. Cut-off read from the data, not from the text of the source: active = inhibition above about 30%; inconclusive = mostly about 10% to 28%; inactive = weaker than that.

Protein sequences, listed by entry. Tags and fused reporters are not part of them. Lines headed by an entry give the natural chain unless they say otherwise; changes in a name come on top.
UniProt Q01638: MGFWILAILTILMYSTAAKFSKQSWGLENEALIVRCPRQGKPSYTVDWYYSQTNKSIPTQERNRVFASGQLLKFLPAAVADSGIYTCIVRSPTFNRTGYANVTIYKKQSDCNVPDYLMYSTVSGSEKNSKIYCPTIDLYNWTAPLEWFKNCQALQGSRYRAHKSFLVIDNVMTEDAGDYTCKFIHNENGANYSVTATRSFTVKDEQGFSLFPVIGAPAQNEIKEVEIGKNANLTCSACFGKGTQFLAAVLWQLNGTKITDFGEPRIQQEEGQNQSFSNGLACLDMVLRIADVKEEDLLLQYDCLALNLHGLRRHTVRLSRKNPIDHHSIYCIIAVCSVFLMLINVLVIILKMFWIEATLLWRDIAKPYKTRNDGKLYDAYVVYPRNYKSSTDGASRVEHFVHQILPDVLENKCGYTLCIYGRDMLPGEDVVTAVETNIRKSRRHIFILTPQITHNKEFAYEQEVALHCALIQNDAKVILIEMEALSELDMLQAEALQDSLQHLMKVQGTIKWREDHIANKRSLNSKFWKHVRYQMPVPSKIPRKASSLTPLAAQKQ

The compounds below were run against Interleukin-1 receptor-like 1 (Homo sapiens) (UniProt Q01638) (assay: blocks human ST2 binding to IL-33, primary screen, biochemical, AlphaLISA (AID 1259354)). Conditions: AlphaLISA ST2-Fc/biotin-IL-33 interaction, 1 h; at 17 µM, active compounds read high.

Compound	inhibition
COC[C@H]1CCCN1C(=O)[C@@H](C)C1CC[C@@]2(C)CC[C@H](NC(=O)c3ccccn3)[C@@H](C)[C@@H]2[C@H]1O (stereo partly specified)	inconclusive: 17%
COc1ccc(CNC(=O)CC[C@H]2CNC(=O)[C@@H]3[C@@H](CCN3Cc3ccc(N(C)C)cc3)N2C)cc1	inconclusive: 17%
Cc1cccc(-c2noc([C@@H]3Cc4nc[nH]c4CN3C(=O)COCC(=O)O)n2)c1	inactive
O=C(NCc1ccc2c(c1)OCO2)c1ccc(NS(=O)(=O)c2cccs2)cc1	inconclusive: 24%
Cc1ccccc1CN(CCO)Cc1ccco1	inconclusive: 18%
Cc1ccoc1C(=O)N1CCN(CCn2cncn2)CC1	inconclusive: 14%
COC(=O)[C@@H](C)NC(=O)[C@H]1CN(C(=O)c2cccnc2)CCN1S(=O)(=O)c1ccccc1	inconclusive: 13%
Cc1ccc(CCNC(=O)c2cc(C3CC3)[nH]n2)o1	inconclusive: 21%
CN(Cc1ccccc1)C1CCCN(C(=O)CCc2cc(Cl)no2)C1 (stereo unspecified)	inconclusive: 20%
COCCN1C(=O)CC(CC(=O)N(C)Cc2csc(C)n2)(c2ccccc2Cl)C1=O (stereo unspecified)	inconclusive: 14%
CCOc1ccc(-n2c(=O)c3sccc3n(CC(=O)NC3CCCC3)c2=O)cc1	inconclusive: 13%
CCN(CCNC(=O)CN(C)S(=O)(=O)c1ccc2c(c1)CCC(=O)N2)c1ccccc1	inactive
CC1=C(C(=O)Nc2ccccn2)C(c2ccc(N(C)C)cc2)n2ncnc2N1 (stereo unspecified)	inactive
O=[N+]([O-])c1ccc(N2CCN(Cc3ccncc3)CC2)cc1	inconclusive: 11%
COc1ccc(CC(=O)c2c(O)cc(O)cc2O)cc1OC	inconclusive: 14%
CC(=O)Oc1ccc([C@H]2C(C#N)=C(N)OC3=C2C(=O)CC(C)(C)C3)cc1	inactive
O=C(Nc1ccc(Cl)cc1)c1ccc([N+](=O)[O-])cc1	inconclusive: 26%
CCC(COC)NC(=O)C1(Oc2ccc(C)cc2)CCNCC1 (stereo unspecified)	inconclusive: 13%
CCOC(=O)c1c(NC(=O)COc2ccc3c(c2)OCO3)sc2c1CCCCC2	inactive
C#CCNC(=O)C[C@@H]1O[C@H](CNC(=O)NC2CCCCC2)[C@@H](O)[C@H]1O	inactive
CCn1cnc2sc(C(=O)N3CCN(c4ccc(OC)cc4)CC3)c(C)c2c1=O	inconclusive: 13%
CC(=O)NS(=O)(=O)c1ccc(NC(=O)Cn2cnc3c2c(=O)n(C)c(=O)n3C)cc1	inactive
COc1cc(/C=C2\C(=O)ON=C2C)cc(Br)c1O	inconclusive: 28%

3 compounds out of the list, ordered by molar mass, smallest number first.
Compound	inhibition
CC(=O)Oc1ccc([C@H]2C(C#N)=C(N)OC3=C2C(=O)CC(C)(C)C3)cc1	inactive
Cc1cccc(-c2noc([C@@H]3Cc4nc[nH]c4CN3C(=O)COCC(=O)O)n2)c1	inactive
COC(=O)[C@@H](C)NC(=O)[C@H]1CN(C(=O)c2cccnc2)CCN1S(=O)(=O)c1ccccc1	inconclusive: 13%

(further entries)

Compound	inhibition
CC1=C(C(=O)N2CCOCC2)C(c2cc(Cl)ccc2OC(F)F)n2c(nc3ccccc32)N1 (stereo unspecified)	inactive
Cc1ccc(OC(C)C(=O)Nc2sc3c(c2C(N)=O)CCCC3)cc1C (stereo unspecified)	inactive
CSc1cccc(NC(=O)Cc2cn(C)c3ccccc23)c1	inactive
COc1ccccc1Oc1nc2c(c(=O)n(C)c(=O)n2C)n1Cc1cccc(Br)c1	inconclusive: 24%
COCCN(Cc1ccncc1)C(=O)CC12CC3CC(CC(C3)C1)C2	inconclusive: 17%
c1ccc(Nc2c(-c3ccc(N4CCOCC4)cc3)nc3ccccn23)cc1	inconclusive: 21%
CCN(CC)CCNC(=O)CN1C(=O)/C(=C\c2cccc(Cl)c2)Sc2ccccc21	inconclusive: 27%
Cc1ccc(C(=O)N2CCN(c3ccccc3)CC2)o1	inconclusive: 22%
Cc1c(C(=O)N2CCC(C#N)CC2)sc2ncnc(N3CCN(c4ccccc4)CC3)c12	inactive
COc1cc(CN2CCN(Cc3ccc4c(c3)OCO4)CC2)cc(Br)c1O	inconclusive: 21%
Cc1nc(SCC(=O)Nc2c(C)cccc2C)c2c3c(sc2n1)CCC3	inconclusive: 18%
CC1=C(C(=O)Nc2ccccn2)C(c2ccc(Cl)cc2)C2=C(CCCC2=O)N1 (stereo unspecified)	inconclusive: 11%
Cc1ccc(N2C(=O)CC(N3CCN(Cc4ccc5c(c4)OCO5)CC3)C2=O)cc1Cl (stereo unspecified)	inconclusive: 13%
CCCOC(=O)C1=C(C)NC2=C(C(=O)C(C(=O)OC)C(C)C2)C1c1ccc(C)s1 (stereo unspecified)	inactive
O=C(CC1COCCN1)NCCCn1ccnc1 (stereo unspecified)	inconclusive: 26%
CC(C)NC(=O)[C@@H](C)[C@@H]1CC[C@@]2(C)CC[C@H](NC(=O)C3CC3)[C@@H](C)[C@@H]2[C@H]1O	inactive
CC(=O)N1N=C(c2c(-c3ccccc3)c3cc(Br)ccc3[nH]c2=O)CC1c1ccco1 (stereo unspecified)	inconclusive: 21%
CC(C)CN(C/C=C/c1ccccc1)C(=O)c1ccc2nccn2c1	inconclusive: 21%
COc1ccc(/C=C/CN2CCCn3cncc3C2)cc1	inconclusive: 11%
COCC(C)N(Cc1ccc2c(c1)OCO2)C(=O)c1csc(C)n1 (stereo unspecified)	inconclusive: 13%
Cc1cccc(NC(=O)CN2C(=O)C(=O)c3ccccc32)c1	inactive
CC(C)(C)C#CC(N1CCOCC1)N1CCOCC1	inconclusive: 12%
Cc1ccc(C(C)(C)NC(=O)CCN2CCCCO2)cc1	inconclusive: 19%

Compound	inhibition
COc1ccc(-c2nc3n(n2)C(=O)CC(c2ccc(C)cc2)S3)cc1 (stereo unspecified)	inactive
O=C(O)CC(CCc1ccccc1)CC(=O)O	inactive
COc1cc2c(cc1NC(=O)c1cc([N+](=O)[O-])ccc1OC)oc1ccccc12	inconclusive: 22%
Cc1ccc(N2C(=O)CSC2c2ccc(F)cc2)cc1Cl (stereo unspecified)	inactive
COc1ccc(/C=C2/C=C(c3ccc(C)cc3)OC2=O)cc1OC	active: 32%
CN1[C@@H]2CC[C@H]1CC(OC(c1ccccc1)c1ccccc1)C2 (stereo partly specified)	inconclusive: 14%
O=C(O)CCCNC(=O)c1ccncc1	inactive
O=C(O)[C@H]1O[C@@H](Oc2cc3oc(-c4ccccc4)cc(=O)c3c(O)c2O)[C@H](O)[C@@H](O)[C@@H]1O	inconclusive: 20%
Cc1ccc(-c2cccc(C(=O)NCCn3ccnc3)c2)o1	inactive
COc1ccc(S(=O)(=O)Nc2ccccc2C)cc1OC	inconclusive: 10%
CCc1cc(F)ccc1OCc1nc(CC2CC2)no1	inconclusive: 18%
CC1CCN(c2nc3nonc3nc2Nc2cccc(Br)c2)CC1	inconclusive: 13%
O=C(Nc1cccc(Cl)c1)c1cc2cc(Br)ccc2oc1=O	inconclusive: 12%
Cc1cc(C)cc(N(C(=O)CC2CCCCC2)C2C=CS(=O)(=O)C2)c1 (stereo unspecified)	inactive
CCOC(=O)C1(CCOc2ccccc2)CCN(C(=O)C2CC(C(C)C)=NO2)CC1 (stereo unspecified)	inactive
CCc1nccc(CN2CCCn3nc(C(=O)OC)cc3C2)n1	inconclusive: 18%
CCOc1ccccc1OCCN(C)C(=O)c1c(C)nc2ncccn12	inconclusive: 19%
COCC(=O)Nc1ncncc1-c1noc([C@@H]2CCCN2Cc2ccccc2OC)n1	inconclusive: 15%
COc1ccc(C(=O)N[C@@H]2CN(C(=O)Nc3ccc(F)cc3)CCC[C@H]2O)cc1	inconclusive: 18%
COc1ccc(C(=O)Nc2nnc(Cc3ccc(Cl)cc3)s2)cc1[N+](=O)[O-]	inconclusive: 19%
O=C(NCCN1CCCCCC1)C1(S(=O)(=O)c2ccc(Cl)cc2)CC1	inconclusive: 19%
Cc1ccc([N+](=O)[O-])cc1NC(=O)CCCN1C(=O)c2ccccc2C1=O	inactive
Cc1ccsc1-c1nccn1CCCn1ccnc1	inactive

2 successive compounds from above, quoted:
Compound	inhibition
COc1ccc(/C=C2/C=C(c3ccc(C)cc3)OC2=O)cc1OC	active: 32%
CN1[C@@H]2CC[C@H]1CC(OC(c1ccccc1)c1ccccc1)C2 (stereo partly specified)	inconclusive: 14%

Next part.

Compound	inhibition
CN1[C@H](C(=O)O)C[C@H](C(=O)NC2CCOCC2)[C@@H]1c1cccc(Cl)c1	inactive
Cc1cc(N2CC(C)CC(C)C2)nc2ccc(NC(=O)CCC(=O)NCc3ccco3)cc12 (stereo unspecified)	inconclusive: 28%
COc1ccc(C(=O)Nc2cccc(-c3nc4ncccc4o3)c2)cc1OC	inconclusive: 16%
CC(C)C(NC(=O)C1CCC(C(C)(C)C)CC1)C(=O)NCc1cccnc1 (stereo unspecified)	inactive
CCOC(=O)C1=C(C)Nc2nc(SCc3ccccc3F)nn2C1c1cccs1 (stereo unspecified)	inconclusive: 15%
COc1cc2c(cc1CN1CCN(c3cncc(C(N)=O)n3)CC1)CCC2	inconclusive: 10%
O=C(Nc1c(Cl)cccc1Cl)c1noc2c1CCCCC2	inconclusive: 20%
CCCOc1ccc(CNC(=O)CN2C(=O)C(CC)=C(c3ccc(OC)cc3)S2(=O)=O)cc1	inactive
CCN1CCN(CCCNC(=O)c2cc3cc4ccc(Cl)cc4nc3o2)CC1	inconclusive: 14%
Cc1cc2nc(CN3CCOC(Cc4ccccc4)C3)cc(=O)n2[nH]1 (stereo unspecified)	inconclusive: 10%
COc1cc(C2C(C#N)=C(N)OC3=C2C(=O)CC(c2ccccc2)C3)cc(Br)c1O (stereo unspecified)	inconclusive: 15%
COc1ccc(C2C(=C(O)c3ccc(F)cc3)C(=O)C(=O)N2c2nnc(C)s2)cc1OC (stereo unspecified)	inactive
O=C1CCCC2=C1C(c1cccs1)n1nc(SCc3ccccc3Cl)nc1N2 (stereo unspecified)	inconclusive: 15% and inconclusive: 11%
COc1ccc(/C=C/c2nc(-c3ccccc3O)n(-c3ccccc3)n2)cc1OC	active: 36%
CN(C)CCCN1c2ccccc2Sc2ccc(Cl)cc21	inconclusive: 16%
COc1cc(C(=O)Nc2cccc3nsnc23)cc(OC)c1OC	inconclusive: 25%
COc1ccc(NC(=O)C2CCN(S(=O)(=O)c3cccnc3)CC2)c(OC)c1	inconclusive: 17%
CCc1ocnc1C(=O)N1Cc2cnn(Cc3ccc(F)cc3)c2C1	inconclusive: 23%
CN1CCN(c2nc(-c3ccc(F)cc3)cc(C(F)(F)F)n2)CC1	inconclusive: 11%
Cc1cc(C(=O)N2CCC(n3nccc3NC(=O)CCCc3ccccc3)CC2)n(C)n1	inactive
Cc1ccc2c(c1)c(=O)c(C(=O)N1CCCC(O)(CN(C)C)CC1)cn2C (stereo unspecified)	inactive
OCCn1c(-c2ccc(F)cc2)csc1=Nc1ccccc1	active: 36%
